Measured values from ChEMBL document CHEMBL2046269, “Phthalide and isocoumarin derivatives produced by an Acremonium sp. isolated from a mangrove Rhizophora apiculata” (2012).
In brackets after ≈: the same amount, converted by molar mass.

System: Candida albicans
Assay: Antifungal activity against Candida albicans NCPF 3153 after 15 hrs by colorimetric broth microdilution test
Type: functional
Details: NCPF 3153, 15 h

## C[C@@H]1[C@H](O)[C@@H](C)/C=C/C=C/C=C/C=C/C=C/C=C/C=C/[C@H](O[C@@H]2O[C@H](C)[C@@H](O)[C@H](N)[C@@H]2O)C[C@@H]2O[C@](O)(C[C@@H](O)C[C@@H](O)[C@H](O)CC[C@@H](O)C[C@@H](O)CC(=O)O[C@H]1C)C[C@H](O)[C@H]2C(=O)O [AMPHOTERICIN B]
  MIC: 0.25 µg/mL (≈ 0.271 µM)
